Values of other authors, collected in patent US12447213B2, “Modulation of novel immune checkpoint targets” (The Brigham and Women's Hospital, Inc., priority 2016, dated 2025).
For at least one compound, name, drawing or mass did not settle the structure.

Conditions: daily dose of 50 mg/day; cited from earlier work

## CCN(CC)CCNC(=O)c1c(C)[nH]c(/C=C2\C(=O)Nc3ccc(F)cc32)c1C [Sunitinib]
  type-1 immune suppression: reverse
